Test results: the supplement of paper PMC10849652
The list shows a part of the results.

Chains of the proteins cited; added tags and fusions are not shown. Lines headed by an entry give the natural chain unless they say otherwise; changes in a name come on top.
UniProt Q5VTE6: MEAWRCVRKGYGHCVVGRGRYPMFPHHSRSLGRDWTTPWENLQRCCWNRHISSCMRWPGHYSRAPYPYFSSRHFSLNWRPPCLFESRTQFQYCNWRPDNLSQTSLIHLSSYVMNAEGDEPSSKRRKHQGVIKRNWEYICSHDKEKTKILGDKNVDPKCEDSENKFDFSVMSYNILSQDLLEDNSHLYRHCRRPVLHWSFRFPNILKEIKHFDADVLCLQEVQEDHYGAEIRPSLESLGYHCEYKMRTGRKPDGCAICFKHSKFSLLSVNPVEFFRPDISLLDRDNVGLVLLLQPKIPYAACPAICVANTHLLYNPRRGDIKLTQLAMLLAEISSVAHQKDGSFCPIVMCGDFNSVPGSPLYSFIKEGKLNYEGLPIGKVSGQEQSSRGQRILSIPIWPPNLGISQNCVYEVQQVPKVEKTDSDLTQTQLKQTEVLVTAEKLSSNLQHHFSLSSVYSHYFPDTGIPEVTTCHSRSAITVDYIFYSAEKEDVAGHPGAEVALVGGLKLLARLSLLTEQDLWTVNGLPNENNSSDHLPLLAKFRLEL
UniProt Q9UM13, whole entry, looked up: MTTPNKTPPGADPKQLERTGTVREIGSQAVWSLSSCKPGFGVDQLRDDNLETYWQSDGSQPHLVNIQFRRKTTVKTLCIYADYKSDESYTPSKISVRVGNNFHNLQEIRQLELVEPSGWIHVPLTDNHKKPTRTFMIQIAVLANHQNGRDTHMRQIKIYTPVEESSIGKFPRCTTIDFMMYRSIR
UniProt P53677: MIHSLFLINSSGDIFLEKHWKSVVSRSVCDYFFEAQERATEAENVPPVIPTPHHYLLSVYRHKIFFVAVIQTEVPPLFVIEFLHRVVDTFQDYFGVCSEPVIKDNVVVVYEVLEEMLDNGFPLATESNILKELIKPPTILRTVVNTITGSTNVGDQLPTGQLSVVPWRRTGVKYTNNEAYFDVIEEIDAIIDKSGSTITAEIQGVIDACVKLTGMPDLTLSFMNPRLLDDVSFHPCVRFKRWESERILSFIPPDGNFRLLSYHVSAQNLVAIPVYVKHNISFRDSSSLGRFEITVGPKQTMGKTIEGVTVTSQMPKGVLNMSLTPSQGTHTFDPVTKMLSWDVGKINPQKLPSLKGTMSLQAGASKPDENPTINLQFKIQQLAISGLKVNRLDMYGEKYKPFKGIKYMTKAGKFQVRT
UniProt Q92572: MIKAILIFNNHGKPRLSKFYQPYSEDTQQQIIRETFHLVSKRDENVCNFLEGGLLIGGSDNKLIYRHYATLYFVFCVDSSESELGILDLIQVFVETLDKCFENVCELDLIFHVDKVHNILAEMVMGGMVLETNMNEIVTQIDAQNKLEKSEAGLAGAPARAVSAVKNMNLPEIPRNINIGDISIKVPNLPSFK
UniProt P17707: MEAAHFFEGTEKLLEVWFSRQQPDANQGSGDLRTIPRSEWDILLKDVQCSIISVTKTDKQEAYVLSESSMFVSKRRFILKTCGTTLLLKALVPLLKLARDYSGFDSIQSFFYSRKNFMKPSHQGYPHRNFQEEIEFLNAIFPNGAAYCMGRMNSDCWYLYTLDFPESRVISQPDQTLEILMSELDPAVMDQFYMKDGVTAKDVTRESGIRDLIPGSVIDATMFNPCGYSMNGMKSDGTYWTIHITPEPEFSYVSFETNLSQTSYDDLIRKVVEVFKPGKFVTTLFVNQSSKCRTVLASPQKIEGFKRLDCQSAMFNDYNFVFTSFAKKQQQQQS
UniProt Q9UJX3, whole entry, looked up: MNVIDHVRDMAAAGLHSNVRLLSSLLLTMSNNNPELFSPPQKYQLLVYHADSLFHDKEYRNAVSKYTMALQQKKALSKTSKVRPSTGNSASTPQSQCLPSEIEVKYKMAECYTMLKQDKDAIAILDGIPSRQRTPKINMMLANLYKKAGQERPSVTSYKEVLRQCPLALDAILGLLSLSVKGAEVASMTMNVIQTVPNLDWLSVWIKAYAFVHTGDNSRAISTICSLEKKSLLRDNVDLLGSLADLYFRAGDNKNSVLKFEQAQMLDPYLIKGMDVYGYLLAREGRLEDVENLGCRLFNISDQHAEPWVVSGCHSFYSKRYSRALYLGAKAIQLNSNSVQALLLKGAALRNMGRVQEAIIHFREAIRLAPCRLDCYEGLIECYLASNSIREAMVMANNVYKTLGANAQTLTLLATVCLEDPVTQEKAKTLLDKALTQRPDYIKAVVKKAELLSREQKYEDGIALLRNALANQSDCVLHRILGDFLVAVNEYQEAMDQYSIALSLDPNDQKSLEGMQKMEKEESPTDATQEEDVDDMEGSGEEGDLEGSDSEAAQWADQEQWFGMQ
UniProt Q9H1A4, whole entry, looked up: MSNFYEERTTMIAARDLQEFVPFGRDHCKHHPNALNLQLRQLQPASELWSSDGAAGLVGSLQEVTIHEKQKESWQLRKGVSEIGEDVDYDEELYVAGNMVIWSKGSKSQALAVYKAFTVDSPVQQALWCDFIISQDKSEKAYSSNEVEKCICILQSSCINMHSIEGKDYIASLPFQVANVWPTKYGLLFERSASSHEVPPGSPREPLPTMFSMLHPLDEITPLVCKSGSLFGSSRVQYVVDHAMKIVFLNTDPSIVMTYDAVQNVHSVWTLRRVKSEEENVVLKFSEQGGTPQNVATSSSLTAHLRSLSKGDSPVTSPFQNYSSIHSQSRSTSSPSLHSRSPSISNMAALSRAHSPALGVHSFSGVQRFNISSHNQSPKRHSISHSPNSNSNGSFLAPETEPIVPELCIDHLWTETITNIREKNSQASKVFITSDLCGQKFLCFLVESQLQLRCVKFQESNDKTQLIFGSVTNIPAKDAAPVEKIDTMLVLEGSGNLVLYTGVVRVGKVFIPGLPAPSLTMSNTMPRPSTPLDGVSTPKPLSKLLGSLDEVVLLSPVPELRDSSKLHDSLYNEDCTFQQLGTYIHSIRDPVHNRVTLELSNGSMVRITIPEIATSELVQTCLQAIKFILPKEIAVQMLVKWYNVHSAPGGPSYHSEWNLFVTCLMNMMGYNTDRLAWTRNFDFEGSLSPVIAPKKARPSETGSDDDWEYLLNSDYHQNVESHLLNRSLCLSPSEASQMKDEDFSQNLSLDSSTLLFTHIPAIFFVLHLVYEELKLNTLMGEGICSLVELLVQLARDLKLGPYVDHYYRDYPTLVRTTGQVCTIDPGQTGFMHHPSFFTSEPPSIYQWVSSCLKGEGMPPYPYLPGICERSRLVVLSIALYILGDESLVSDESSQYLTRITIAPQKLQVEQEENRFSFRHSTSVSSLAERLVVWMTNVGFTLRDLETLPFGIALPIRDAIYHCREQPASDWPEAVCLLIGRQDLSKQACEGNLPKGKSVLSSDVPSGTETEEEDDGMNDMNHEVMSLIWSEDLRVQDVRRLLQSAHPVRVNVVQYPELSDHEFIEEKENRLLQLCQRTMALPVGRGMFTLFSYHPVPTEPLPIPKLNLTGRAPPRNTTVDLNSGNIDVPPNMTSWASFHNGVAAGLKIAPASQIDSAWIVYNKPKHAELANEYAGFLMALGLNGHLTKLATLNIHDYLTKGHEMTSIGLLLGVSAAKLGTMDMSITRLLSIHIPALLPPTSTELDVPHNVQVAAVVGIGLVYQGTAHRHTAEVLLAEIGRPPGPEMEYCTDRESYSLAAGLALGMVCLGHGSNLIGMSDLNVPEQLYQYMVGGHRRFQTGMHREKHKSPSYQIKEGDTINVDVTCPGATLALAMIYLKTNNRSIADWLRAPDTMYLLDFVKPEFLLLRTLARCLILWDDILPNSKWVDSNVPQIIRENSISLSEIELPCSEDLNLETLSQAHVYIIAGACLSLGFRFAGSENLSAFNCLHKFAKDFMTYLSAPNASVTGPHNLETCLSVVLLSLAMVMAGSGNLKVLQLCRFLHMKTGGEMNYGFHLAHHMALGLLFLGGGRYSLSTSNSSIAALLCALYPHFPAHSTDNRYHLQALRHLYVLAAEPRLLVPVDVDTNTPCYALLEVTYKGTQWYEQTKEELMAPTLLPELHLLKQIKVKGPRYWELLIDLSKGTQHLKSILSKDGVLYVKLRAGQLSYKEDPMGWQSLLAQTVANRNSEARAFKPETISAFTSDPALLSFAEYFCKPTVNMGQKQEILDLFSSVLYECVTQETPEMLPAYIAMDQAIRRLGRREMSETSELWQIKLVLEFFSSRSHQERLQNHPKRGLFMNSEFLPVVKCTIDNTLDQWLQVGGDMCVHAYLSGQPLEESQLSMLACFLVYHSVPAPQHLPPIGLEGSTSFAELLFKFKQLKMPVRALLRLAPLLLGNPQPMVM
UniProt O14617: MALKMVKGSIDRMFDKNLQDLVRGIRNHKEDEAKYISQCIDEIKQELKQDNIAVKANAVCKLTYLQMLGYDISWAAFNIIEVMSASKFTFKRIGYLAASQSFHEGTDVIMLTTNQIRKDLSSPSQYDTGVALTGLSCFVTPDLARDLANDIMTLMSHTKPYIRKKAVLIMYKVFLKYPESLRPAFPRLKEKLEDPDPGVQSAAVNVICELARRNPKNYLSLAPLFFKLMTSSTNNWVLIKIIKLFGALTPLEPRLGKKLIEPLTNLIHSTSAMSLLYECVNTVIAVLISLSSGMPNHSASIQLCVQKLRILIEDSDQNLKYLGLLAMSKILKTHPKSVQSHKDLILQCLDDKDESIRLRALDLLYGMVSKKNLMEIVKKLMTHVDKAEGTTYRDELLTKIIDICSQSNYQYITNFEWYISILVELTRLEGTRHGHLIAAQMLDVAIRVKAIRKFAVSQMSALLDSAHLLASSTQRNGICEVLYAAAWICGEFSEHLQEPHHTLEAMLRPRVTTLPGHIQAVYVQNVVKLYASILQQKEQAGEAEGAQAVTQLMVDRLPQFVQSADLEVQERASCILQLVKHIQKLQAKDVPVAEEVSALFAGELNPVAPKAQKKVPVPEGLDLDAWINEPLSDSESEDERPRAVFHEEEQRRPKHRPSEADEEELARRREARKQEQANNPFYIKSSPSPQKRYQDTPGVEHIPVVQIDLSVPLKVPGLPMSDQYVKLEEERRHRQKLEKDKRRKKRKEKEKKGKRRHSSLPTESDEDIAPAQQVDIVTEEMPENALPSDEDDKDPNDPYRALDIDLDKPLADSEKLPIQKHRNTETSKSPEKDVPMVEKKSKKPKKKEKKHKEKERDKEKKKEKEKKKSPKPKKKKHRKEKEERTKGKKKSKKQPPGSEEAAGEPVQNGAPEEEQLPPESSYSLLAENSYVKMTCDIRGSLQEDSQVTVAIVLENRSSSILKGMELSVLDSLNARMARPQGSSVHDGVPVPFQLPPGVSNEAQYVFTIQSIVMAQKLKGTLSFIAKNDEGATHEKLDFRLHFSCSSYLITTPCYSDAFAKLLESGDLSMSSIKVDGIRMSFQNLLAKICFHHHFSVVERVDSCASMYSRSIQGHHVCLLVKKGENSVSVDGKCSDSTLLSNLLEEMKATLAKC
UniProt Q9NQW6: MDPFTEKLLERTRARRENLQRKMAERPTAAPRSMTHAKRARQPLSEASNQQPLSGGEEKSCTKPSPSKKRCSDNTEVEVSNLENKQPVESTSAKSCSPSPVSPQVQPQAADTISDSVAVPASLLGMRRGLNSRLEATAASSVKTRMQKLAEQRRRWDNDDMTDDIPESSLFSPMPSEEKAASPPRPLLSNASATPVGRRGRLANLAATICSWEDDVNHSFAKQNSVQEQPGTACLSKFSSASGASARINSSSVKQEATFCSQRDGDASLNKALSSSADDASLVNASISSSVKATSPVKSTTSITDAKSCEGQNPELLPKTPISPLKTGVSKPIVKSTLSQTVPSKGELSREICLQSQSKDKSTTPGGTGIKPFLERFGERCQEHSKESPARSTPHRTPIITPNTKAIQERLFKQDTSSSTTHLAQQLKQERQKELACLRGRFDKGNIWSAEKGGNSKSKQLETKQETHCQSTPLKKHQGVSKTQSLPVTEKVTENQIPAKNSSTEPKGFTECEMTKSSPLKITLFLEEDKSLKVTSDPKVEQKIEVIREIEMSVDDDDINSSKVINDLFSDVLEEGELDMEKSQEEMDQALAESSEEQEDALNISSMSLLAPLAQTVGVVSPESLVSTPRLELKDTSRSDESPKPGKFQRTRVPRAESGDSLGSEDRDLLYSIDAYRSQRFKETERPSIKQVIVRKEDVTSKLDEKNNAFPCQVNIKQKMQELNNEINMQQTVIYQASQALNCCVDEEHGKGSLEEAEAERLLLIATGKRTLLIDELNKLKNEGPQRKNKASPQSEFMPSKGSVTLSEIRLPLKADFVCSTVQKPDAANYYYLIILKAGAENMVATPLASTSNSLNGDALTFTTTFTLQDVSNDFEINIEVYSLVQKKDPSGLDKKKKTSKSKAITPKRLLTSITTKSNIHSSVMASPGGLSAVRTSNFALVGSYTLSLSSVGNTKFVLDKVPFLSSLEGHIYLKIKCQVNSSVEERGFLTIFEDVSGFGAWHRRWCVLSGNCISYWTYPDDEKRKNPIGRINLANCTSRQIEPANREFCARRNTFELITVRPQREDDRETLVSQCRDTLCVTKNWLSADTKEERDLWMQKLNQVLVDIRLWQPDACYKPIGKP

Legend:
Assay in all cases: log2 fold change, soluble protein after heating vs DMSO (PISA); higher = thermal stabilisation; K562 lysate, 10 uM; active = over 0.2 and 3.5 SD of the protein, either way, in both replicates (recomputed)
erlotinib = compound: C#Cc1cccc(Nc2ncnc3cc(OCCOC)c(OCCOC)cc23)c1 [erlotinib]
Summary of the method: (§1)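 Pellets of K562 cells were dounce-homogenised in PBS pH 7.4 with 1 mM MgCl2, and the crude extract was held at 1 mg/mL protein for a 30 min treatment with 10 μM compound. Aliquots were heated for 3 min over 48°C-58°C and pooled before NP-40 was added to 0.5% at 4°C. The supernatant from 21,000xg for 90 min was quantified by TMTpro 16plex LC-MS/MS with channel sums equalised. Values are reported from duplicates as log-two fold change in thermal stability relative to solvent controls.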

[1] = compound: C/C(=N\NC(=O)C1=CC(=CC=C1)S(=O)(=O)N2CCOCC2)/C3=C(C=CC(=C3)Cl)O
Summary of the method: as §1

[2] = compound: C1=CC(=CC=C1C2=NC3=C(N2)C=C(C=C3)C(=O)N)OC4=CC=C(C=C4)Cl
Summary of the method: as §1

[3] = compound: C1=CC2=C(C=CC(=C2)/C=C\3/C(=O)NC(=NCC4=CC=CS4)S3)N=C1
Summary of the method: as §1

[4] = compound: C1=CC2=NC=CN=C2C=C1/C=C/3\C(=O)NC(=O)S3
Summary of the method: as §1

[5] = compound: C1=CC=C(C=C1)C2=NC(=C(N2)C3=CC=NC=C3)C4=CC(=C(C=C4)Cl)O
Summary of the method: as §1

[6] = compound: C1=CC=C2C(=C1)C3=NNC4=CC=CC(=C43)C2=O
Summary of the method: as §1

[7] = compound: C1CCN(C1)C(=O)NC2=CC=CC(=C2)NC3=NC=C(C(=N3)NCCC4=CN=CN4)Br
Summary of the method: as §1

[8] = compound: C1CN(CCC1(CC2=CC=C(C=C2)Cl)N)C3=NC=NC4=C3C=CN4
Summary of the method: as §1

IRAK-1-4 Inhibitor I = compound: C1COCCN1CCN2C3=CC=CC=C3N=C2NC(=O)C4=CC(=CC=C4)[N+](=O)[O-] [IRAK-1-4 Inhibitor I]
Summary of the method: as §1

Measured: log2 fold change

ANGEL2 (UniProt Q5VTE6)
inactive: erlotinib -0.018 | [1] 0.055 | [2] 0.034 | [3] -0.074 | [4] -0.09 | [5] -0.193 | [6] -0.033 | [7] 0.018 | [8] 0.013 | IRAK-1-4 Inhibitor I 0.028

AP1M1 (UniProt Q9BXS5)
inactive: erlotinib -0.023 | [1] -0.044 | [2] 0.01 | [3] -0.002 | [4] 0.004 | [5] 0.008 | [6] 0.034 | [7] -0.019 | [8] -0.007 | IRAK-1-4 Inhibitor I 0.003

ANAPC10 (UniProt Q9UM13)
inactive: erlotinib -0.034 | [1] -0.037 | [2] 0.042 | [3] 0.031 | [4] -0.025 | [5] 0.03 | [6] -0.016 | [7] -0.007 | [8] -0.007 | IRAK-1-4 Inhibitor I -0.013

AP3M2 (UniProt P53677)
inactive: erlotinib 0.055 | [1] 0.061 | [2] -0.024 | [3] -0.176 | [4] -0.018 | [5] -0.208 | [6] -0.198 | [7] -0.081 | [8] 0.088 | IRAK-1-4 Inhibitor I -0.002

AMOTL1 (UniProt Q8IY63)
inactive: erlotinib -0.032 | [1] -0.275 | [2] 0.001 | [3] -0.267 | [4] 0.034 | [5] 0.056 | [6] 0.047 | [7] 0.039 | [8] 0.054 | IRAK-1-4 Inhibitor I -0.002

AP3S1 (UniProt Q92572)
inactive: erlotinib 0.034 | [1] -0.056 | [2] -0.003 | [3] 0.011 | [4] -0.028 | [5] 0.006 | [6] 0 | [7] -0.004 | [8] -0.033 | IRAK-1-4 Inhibitor I 0.001

AMD1 (UniProt P17707)
inactive: erlotinib 0.019 | [1] 0.011 | [2] -0.091 | [3] -0.075 | [4] 0.055 | [5] 0.061 | [6] 0.011 | [7] 0.114 | [8] -0.156 | IRAK-1-4 Inhibitor I -0.036

ANKHD1 isoform 6 (UniProt Q8IWZ3)
inactive: erlotinib -0.006 | [1] 0.001 | [2] -0.007 | [3] 0.025 | [4] -0.004 | [5] -0.002 | [6] -0.004 | [7] -0.039 | [8] 0.028 | IRAK-1-4 Inhibitor I -0.002

2 successive records from above, quoted:
AP3S1 (UniProt Q92572)
inactive: erlotinib 0.034 | [1] -0.056 | [2] -0.003 | [3] 0.011 | [4] -0.028 | [5] 0.006 | [6] 0 | [7] -0.004 | [8] -0.033 | IRAK-1-4 Inhibitor I 0.001

AMD1 (UniProt P17707)
inactive: erlotinib 0.019 | [1] 0.011 | [2] -0.091 | [3] -0.075 | [4] 0.055 | [5] 0.061 | [6] 0.011 | [7] 0.114 | [8] -0.156 | IRAK-1-4 Inhibitor I -0.036

The list continues.

ALG2 (UniProt Q9H553)
inactive: erlotinib 0 | [1] 0.08 | [2] -0.01 | [3] -0.076 | [4] 0 | [5] 0.026 | [6] -0.062 | [7] 0 | [8] 0.052 | IRAK-1-4 Inhibitor I -0.039

AP2A2 isoform 2 (UniProt O94973)
inactive: erlotinib -0.055 | [1] 0.018 | [2] 0.026 | [3] 0.032 | [4] -0.118 | [5] -0.018 | [6] -0.025 | [7] -0.029 | [8] 0.031 | IRAK-1-4 Inhibitor I 0.005

ANAPC5 (UniProt Q9UJX4)
inactive: erlotinib 0.008 | [1] -0.025 | [2] -0.004 | [3] -0.006 | [4] 0.011 | [5] 0.031 | [6] 0 | [7] -0.008 | [8] 0.009 | IRAK-1-4 Inhibitor I 0.001

AP1S2 (UniProt P56377)
inactive: erlotinib 0.057 | [1] 0.034 | [2] -0.058 | [3] 0.032 | [4] -0.054 | [5] -0.039 | [6] 0.021 | [7] 0.235 | [8] 0.067 | IRAK-1-4 Inhibitor I 0.211

ALMS1 (UniProt Q8TCU4)
inactive: erlotinib 0.023 | [1] -0.055 | [2] -0.011 | [3] -0.18 | [4] -0.028 | [5] 0.051 | [6] 0.068 | [7] -0.056 | [8] 0.009 | IRAK-1-4 Inhibitor I -0.036

ANAPC7 (UniProt Q9UJX3)
inactive: erlotinib -0.001 | [1] 0.006 | [2] 0.002 | [3] 0.024 | [4] -0.016 | [5] 0.003 | [6] 0.027 | [7] 0 | [8] -0.017 | IRAK-1-4 Inhibitor I 0.005

ALDOC (UniProt P09972)
inactive: erlotinib -0.012 | [1] 0.09 | [2] 0.005 | [3] 0.011 | [4] -0.009 | [5] 0.012 | [6] 0.008 | [7] -0.014 | [8] 0.018 | IRAK-1-4 Inhibitor I 0.008

ANAPC1 (UniProt Q9H1A4)
inactive: erlotinib 0.016 | [1] 0.011 | [2] -0.037 | [3] -0.024 | [4] 0.014 | [5] -0.006 | [6] 0.004 | [7] -0.014 | [8] 0.017 | IRAK-1-4 Inhibitor I 0.013

AP3D1 isoform 5 (UniProt O14617)
inactive: erlotinib -0.013 | [1] -0.004 | [2] -0.006 | [3] 0.011 | [4] 0.001 | [5] -0.007 | [6] -0.015 | [7] -0.015 | [8] -0.001 | IRAK-1-4 Inhibitor I -0.003

ANXA1 (UniProt P04083)
inactive: erlotinib -0.012 | [1] 0.013 | [2] 0.015 | [3] 0.014 | [4] -0.009 | [5] -0.008 | [6] -0.021 | [7] 0.003 | [8] 0.016 | IRAK-1-4 Inhibitor I -0.013

ANLN (UniProt Q9NQW6)
inactive: erlotinib -0.006 | [1] -0.142 | [2] 0.007 | [3] -0.019 | [4] -0.072 | [5] 0.01 | [6] -0.019 | [7] -0.045 | [8] -0.002 | IRAK-1-4 Inhibitor I -0.017
